Experimental data: PubChem BioAssay AID1224826 (NIAID, 2016)
The whole screen tested about 17,000 reagents; this is an unselected part. Over the whole deposit, about 1,110 (6.6%) got an active call. 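Active means lowered or raised reporter signal; replicate intensities are raw and not normalised per plate.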 Further read-outs or replicates are left out here. No sequences are given here.

Test: 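Knock-downs that raise or lower Tnf reporter signal after endotoxin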 (primary screen)
Cell system: RAW264.7 G9 macrophages from mouse bearing reporters for p65 (GFP) and the Tnf promoter (mCherry)
Reagents: siRNA pool against mouse genes, 100 nM
Time to read-out: 16 h of LPS stimulation, after 2 days of siRNA transfection
Treatment: bacterial lipopolysaccharide (Salmonella minnesota R595), 10 ng/ml
Read-out: 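Nuclear mCherry signal of the Tnf promoter reporter measured by imaging after background removal, scaled to each plate median and turned into robust z-scores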
Scale: Tnf reporter robust z-score: higher = stronger Tnf promoter reporter signal after LPS
Active means: 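Called active when robust z-score is at most -1.3, matching the median of the Tlr4 knock-down control, or over 3; control wells and wells with under 50 cells never active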
Meaning of the calls: active = Tnf reporter clearly lowered or raised; inactive = no clear change in Tnf reporter

Against Or7a42 (olfactory receptor family 7 subfamily A member 42), the entry reads fewer than 50 cells in well fewer than 50 cells per well; well left out of calls; inactive.
For Pcdha5 (protocadherin alpha 5), the values are Tnf reporter robust z-score 0.79; fewer than 50 cells in well enough cells in well; inactive.
Against Fbxl9 (F-box and leucine-rich repeat protein 9), the values are Tnf reporter robust z-score 0.44; fewer than 50 cells in well enough cells in well; inactive.
Against Or8b40 (olfactory receptor family 8 subfamily B member 40), the entry reads Tnf reporter robust z-score 3.03; fewer than 50 cells in well enough cells in well; active.
Tex2 (testis expressed gene 2) showed Tnf reporter robust z-score 3.11; fewer than 50 cells in well enough cells in well; active.
Against Atl2 (atlastin GTPase 2) the deposit lists Tnf reporter robust z-score -0.11; fewer than 50 cells in well enough cells in well; inactive.

2 of these entries, set out differently:
| Gene | Tnf reporter robust z-score | fewer than 50 cells in well | Outcome |
| --- | --- | --- | --- |
| Tex2 (testis expressed gene 2) | 3.11 | enough cells in well | active |
| Atl2 (atlastin GTPase 2) | -0.11 | enough cells in well | inactive |

Further entries:
For Gatad1 (GATA zinc finger domain containing 1), the values are Tnf reporter robust z-score -1.46; fewer than 50 cells in well enough cells in well; active.
Foxg1 (forkhead box G1) scored Tnf reporter robust z-score -0.12; fewer than 50 cells in well enough cells in well; inactive.
Knock-down of Tbc1d17 (TBC1 domain family, member 17) came out at: fewer than 50 cells in well fewer than 50 cells per well; well left out of calls; inactive.
Silencing of Cct2 (chaperonin containing TCP1 subunit 2) came out at: Tnf reporter robust z-score 1.84; fewer than 50 cells in well enough cells in well; inactive.
Depletion of Gm2a (GM2 ganglioside activator protein) gave: Tnf reporter robust z-score -0.3; fewer than 50 cells in well enough cells in well; inactive.
Against Cnga2 (cyclic nucleotide gated channel alpha 2), the values are Tnf reporter robust z-score -0.71; fewer than 50 cells in well enough cells in well; inactive.
